PubChem BioAssay AID1224830 | NIAID – 2016
Shown is an unselected part of about 18,000 deposited reagents. About 2,900 of all reagents (16%) count as active. 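Calls are made per well; low scores hint the gene aids the LPS response, high scores that it dampens it.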 Entries without a mark were called inactive. Repeated entries: four replicate wells of each siRNA pool.

Screen: 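Genes whose knock-down alters the TNF-alpha reporter response to LPS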 (primary screen)
System: human THP-1 monocytic leukaemia cells, TNF dual-luciferase reporter clone, PMA-differentiated to macrophage-like cells
Reagent: siRNA pool against human genes, 50 nM
Time to read-out: LPS for 4 h, given about 3 days after siRNA transfection
Challenge: bacterial LPS (TLR4 ligand), 10 ng/ml
Measured: 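Ratio of firefly to renilla light, scaled to the plate median and expressed as a robust z-score per replicate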
Scale: TNF reporter robust z-score: higher = stronger TNF reporter response to LPS
Call rule: 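Each well counts as active if its z-score is over 2.8 or under -1.5; controls are left without a call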

LGALS1 (galectin 1) [SID315449753] | TNF reporter robust z-score: -0.97
LGALS1 (galectin 1) [SID315449753] | TNF reporter robust z-score: 0.09
LGALS1 (galectin 1) [SID315449753] | TNF reporter robust z-score: 0.03
LGALS1 (galectin 1) [SID315449753] | TNF reporter robust z-score: 1.81
TARS3 (threonyl-tRNA synthetase 3) [SID315461579] | TNF reporter robust z-score: -0.8
TARS3 (threonyl-tRNA synthetase 3) [SID315461579] | TNF reporter robust z-score: -0.04
TARS3 (threonyl-tRNA synthetase 3) [SID315461579] | TNF reporter robust z-score: -0.99
TARS3 (threonyl-tRNA synthetase 3) [SID315461579] | TNF reporter robust z-score: -1.08
PKN2 (protein kinase N2) [SID315450810] | TNF reporter robust z-score: -1.69 (active)
PKN2 (protein kinase N2) [SID315450810] | TNF reporter robust z-score: -1.67 (active)
PKN2 (protein kinase N2) [SID315450810] | TNF reporter robust z-score: 0.61
PKN2 (protein kinase N2) [SID315450810] | TNF reporter robust z-score: 0.34
RAD51D (RAD51 paralog D) [SID315451034] | TNF reporter robust z-score: 0.21
RAD51D (RAD51 paralog D) [SID315451034] | TNF reporter robust z-score: 0.38
RAD51D (RAD51 paralog D) [SID315451034] | TNF reporter robust z-score: -0.05
RAD51D (RAD51 paralog D) [SID315451034] | TNF reporter robust z-score: 0.82
RNASE4 (ribonuclease A family member 4) [SID315451142] | TNF reporter robust z-score: -0.51
RNASE4 (ribonuclease A family member 4) [SID315451142] | TNF reporter robust z-score: 0.29
RNASE4 (ribonuclease A family member 4) [SID315451142] | TNF reporter robust z-score: 0.01
RNASE4 (ribonuclease A family member 4) [SID315451142] | TNF reporter robust z-score: 0.71
CNPY4 (canopy FGF signaling regulator 4) [SID315463370] | TNF reporter robust z-score: 0.5
CNPY4 (canopy FGF signaling regulator 4) [SID315463370] | TNF reporter robust z-score: 0.26
CNPY4 (canopy FGF signaling regulator 4) [SID315463370] | TNF reporter robust z-score: -0.72
CNPY4 (canopy FGF signaling regulator 4) [SID315463370] | TNF reporter robust z-score: 0.34
ARSI (arylsulfatase family member I) [SID315464064] | TNF reporter robust z-score: 5.72 (active)
ARSI (arylsulfatase family member I) [SID315464064] | TNF reporter robust z-score: -1.51 (active)
ARSI (arylsulfatase family member I) [SID315464064] | TNF reporter robust z-score: -1.58 (active)
ARSI (arylsulfatase family member I) [SID315464064] | TNF reporter robust z-score: -1.53 (active)
SLC22A13 [SID315453249] | TNF reporter robust z-score: 0.15
SLC22A13 [SID315453249] | TNF reporter robust z-score: 0.02
SLC22A13 [SID315453249] | TNF reporter robust z-score: 0.59
KLB (klotho beta) [SID315462546] | TNF reporter robust z-score: -0.49
KLB (klotho beta) [SID315462546] | TNF reporter robust z-score: -0.75
KLB (klotho beta) [SID315462546] | TNF reporter robust z-score: -1.22
KLB (klotho beta) [SID315462546] | TNF reporter robust z-score: -1.07
